Results are given in words; binding and its absence hold for the method and conditions named. In cells and extracts the contact can be indirect. Some entries that bind do so weakly or less than the wild type.
Molecular target: T1, UV radiation resistance-associated gene (UVRAG) (UniProt Q8K245)
T1 sequence: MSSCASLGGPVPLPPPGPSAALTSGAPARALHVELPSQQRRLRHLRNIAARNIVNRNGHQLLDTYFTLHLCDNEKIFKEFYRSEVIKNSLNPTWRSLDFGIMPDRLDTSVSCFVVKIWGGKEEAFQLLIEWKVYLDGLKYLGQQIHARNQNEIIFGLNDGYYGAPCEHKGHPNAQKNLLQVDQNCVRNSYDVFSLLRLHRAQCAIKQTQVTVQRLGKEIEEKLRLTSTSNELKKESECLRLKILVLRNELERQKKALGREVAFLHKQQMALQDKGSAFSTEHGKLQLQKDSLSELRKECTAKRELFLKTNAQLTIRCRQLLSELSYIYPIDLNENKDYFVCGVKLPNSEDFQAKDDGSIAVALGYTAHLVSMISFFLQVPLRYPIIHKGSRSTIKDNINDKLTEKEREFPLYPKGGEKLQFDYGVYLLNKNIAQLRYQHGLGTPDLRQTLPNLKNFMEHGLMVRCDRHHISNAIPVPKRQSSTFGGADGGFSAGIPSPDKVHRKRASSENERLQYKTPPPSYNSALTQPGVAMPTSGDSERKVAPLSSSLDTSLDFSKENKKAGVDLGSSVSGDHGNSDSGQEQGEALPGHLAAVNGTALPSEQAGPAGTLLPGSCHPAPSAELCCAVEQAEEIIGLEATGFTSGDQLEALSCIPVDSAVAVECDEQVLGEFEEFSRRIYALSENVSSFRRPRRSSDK
Test: co-IP; cell lysates mixed with anti-UVRAG antibody/anti-SMURF1 antibody and protein A sepharose, overnight at 4 °C; washed three times with IP lysis buffer; Western blot for SMURF1 and UVRAG

Protein sequences, listed by entry. Tags and fused reporters are not part of them.
UniProt Q9CUN6: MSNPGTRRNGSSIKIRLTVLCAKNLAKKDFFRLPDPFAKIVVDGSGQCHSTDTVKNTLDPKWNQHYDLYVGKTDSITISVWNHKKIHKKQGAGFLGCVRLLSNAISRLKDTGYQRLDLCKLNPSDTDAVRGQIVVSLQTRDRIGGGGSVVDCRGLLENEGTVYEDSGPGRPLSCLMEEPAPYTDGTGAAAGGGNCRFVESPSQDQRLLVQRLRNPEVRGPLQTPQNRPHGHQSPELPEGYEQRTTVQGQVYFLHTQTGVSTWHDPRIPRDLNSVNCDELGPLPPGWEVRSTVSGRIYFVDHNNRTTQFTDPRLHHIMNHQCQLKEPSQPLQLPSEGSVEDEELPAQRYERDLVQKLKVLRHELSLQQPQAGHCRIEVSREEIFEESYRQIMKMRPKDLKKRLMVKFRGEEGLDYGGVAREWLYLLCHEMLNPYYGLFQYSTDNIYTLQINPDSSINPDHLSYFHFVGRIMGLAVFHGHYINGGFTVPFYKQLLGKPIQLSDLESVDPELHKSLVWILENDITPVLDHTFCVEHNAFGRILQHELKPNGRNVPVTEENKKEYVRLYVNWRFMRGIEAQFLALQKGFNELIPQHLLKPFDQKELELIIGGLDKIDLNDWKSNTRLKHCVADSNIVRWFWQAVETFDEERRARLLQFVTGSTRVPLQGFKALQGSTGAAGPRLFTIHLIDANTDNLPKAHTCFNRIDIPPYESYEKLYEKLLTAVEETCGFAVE

Substance: Smad ubiquitin regulatory factor 1 (SMURF1) (from UniProt Q9CUN6 1-731) (enzyme)
- binding: binds

Reference: paper PMC8863836
